Some of the results follow. Many values rest on one well or one pass, so single values are uncertain.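 Cells were imaged in 1,536-well plates, and nuclei stained with an antibody against cleaved PARP were counted against all DNA-stained nuclei to give the apoptosis fraction. Screening doses were chosen to leave most cells alive, and resting and induced cleaved-PARP levels differ strongly between cell lines.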
How the values were obtained:
Assay in all cases: cleaved PARP positive nuclei fraction relative to DMSO control; melanoma cells; higher = more apoptosis
Details in all cases: library dose: low library concentration; 72 h
MZ2-MEL = tested on: MZ2-MEL
MeWo = tested on: MeWo
RPMI7951 = tested on: RPMI7951
RVH-421 = tested on: RVH-421
SkMel28 = tested on: SkMel28
SkMel2 = tested on: SkMel2
SkMel30 = tested on: SkMel30
UACC62 = tested on: UACC62
WM115 = tested on: WM115
WM1716 = tested on: WM1716
WM1745 = tested on: WM1745
WM3526 = tested on: WM3526
WM3619 = tested on: WM3619
WM451Lu = tested on: WM451Lu

Structure (SMILES)	cleaved PARP positive nuclei fraction (MZ2-MEL)	cleaved PARP positive nuclei fraction (MeWo)	cleaved PARP positive nuclei fraction (RPMI7951)	cleaved PARP positive nuclei fraction (RVH-421)	cleaved PARP positive nuclei fraction (SkMel28)	cleaved PARP positive nuclei fraction (SkMel2)	cleaved PARP positive nuclei fraction (SkMel30)	cleaved PARP positive nuclei fraction (UACC62)	cleaved PARP positive nuclei fraction (WM115)	cleaved PARP positive nuclei fraction (WM1716)	cleaved PARP positive nuclei fraction (WM1745)	cleaved PARP positive nuclei fraction (WM3526)	cleaved PARP positive nuclei fraction (WM3619)	cleaved PARP positive nuclei fraction (WM451Lu)
C=C(c1ccc(C(=O)O)cc1)c1cc2c(cc1C)C(C)(C)CCC2(C)C [Bexarotene] + COCC[n+]1c2c(n(Cc3cnccn3)c1C)C(=O)c1ccccc1C2=O [YM155] (first compound 2 µM, partner dose 0.0004 µM)	220%	51.3%	188%	177%	287%	108%	114%	52.7%	38.9%	123%	278%	188%	83.8%	45.6%
O=C(O)c1ccc2c(c1)nc(Nc1cccc(Cl)c1)c1ccncc12 + OCc1c[nH]c2ccccc12 [Indole-3-carbinol] (first compound 0.4 µM, partner dose 0.8 µM)	157%	217%	48.4%	97.1%	79.3%	118%	76.6%	99.1%	73.5%	119%	87.9%	245%	98.9%	33.6%
Cn1c(=O)n(-c2ccc(C(C)(C)C#N)cc2)c2c3cc(-c4cnc5ccccc5c4)ccc3ncc21 + Nc1ncn([C@H]2C[C@H](O)[C@@H](CO)O2)c(=O)n1 [decitabine] (first compound 0.004 µM, partner dose 0.1 µM)	153%	86.3%	34.2%	88%	51.9%	101%	51.8%	90.7%	99.5%	182%	105%	99%	125%	90.6%
Nc1ncn([C@H]2C[C@H](O)[C@@H](CO)O2)c(=O)n1 [decitabine] + C#Cc1cccc(Nc2ncnc3cc(OCCOC)c(OCCOC)cc23)c1 [erlotinib] (first compound 0.1 µM, partner dose 0.8 µM)	44.8%	90.2%	98.1%	110%	48.8%	79.5%	40.5%	297%	161%	56.3%	105%	42.6%	111%	43.1%
C=C(c1ccc(C(=O)O)cc1)c1cc2c(cc1C)C(C)(C)CCC2(C)C [Bexarotene] + Nc1cccc2c1CN(C1CCC(=O)NC1=O)C2=O [lenalidomide] (first compound 2 µM, partner dose 1 µM)	128%	149%	124%	226%	182%	79.3%	67.2%	34.4%	36.9%	78.5%	104%	41%	75.6%	108%
O=C(O)c1ccc2c(c1)nc(Nc1cccc(Cl)c1)c1ccncc12 + Nc1ccn([C@@H]2O[C@H](CO)[C@@H](O)C2(F)F)c(=O)n1 [gemcitabine] (first compound 0.4 µM, partner dose 0.0004 µM)	163%	100%	214%	115%	32.3%	113%	98.7%	56.7%	137%	81.3%	100%	75.1%	142%	44.7%
C[C@@H](Oc1cc(-c2cnn(C3CCNCC3)c2)cnc1N)c1c(Cl)ccc(F)c1Cl [Crizotinib] + Nc1ncn([C@H]2C[C@H](O)[C@@H](CO)O2)c(=O)n1 [decitabine] (first compound 0.2 µM, partner dose 0.1 µM)	127%	136%	63.7%	77.1%	78.8%	72.6%	38.8%	34.7%	44.2%	36.6%	90.4%	43.8%	81.9%	294%
CS(=O)(=O)CCNCc1ccc(-c2ccc3ncnc(Nc4ccc(OCc5cccc(F)c5)c(Cl)c4)c3c2)o1 [lapatinib] + Clc1ccc(Nc2nnc(Cc3ccncc3)c3ccccc23)cc1 [vatalanib] (first compound 0.8 µM, partner dose 2 µM)	79.4%	233%	224%	261%	73.1%	78.9%	80.7%	84.4%	93.9%	44.1%	92.9%	165%	109%	140%
CC(C)C[C@H](NC(=O)[C@H](Cc1ccccc1)NC(=O)c1cnccn1)B(O)O [Bortezomib] + COCC[n+]1c2c(n(Cc3cnccn3)c1C)C(=O)c1ccccc1C2=O [YM155] (first compound 0.001 µM, partner dose 0.0004 µM)	261%	196%	223%	153%	92.6%	88.8%	107%	188%	38.1%	796%	104%	46.7%	425%	114%
Nc1ncn([C@H]2C[C@H](O)[C@@H](CO)O2)c(=O)n1 [decitabine] + C[C@]1(c2nc3c(C(N)=O)cccc3[nH]2)CCCN1 [Veliparib] (first compound 0.1 µM, partner dose 1.4 µM)	28.4%	79.4%	55.4%	151%	62.8%	128%	132%	144%	114%	88%	80.1%	41.7%	107%	88.1%
CNC(=O)c1cc(Oc2ccc(NC(=O)Nc3ccc(Cl)c(C(F)(F)F)c3)cc2)ccn1 [sorafenib] + Nc1nc(F)nc2c1ncn2[C@@H]1O[C@H](CO)[C@@H](O)[C@@H]1O [fludarabine] (first compound 0.4 µM, partner dose 0.2 µM)	91.8%	200%	115%	71.9%	60.2%	749%	3210%	82.6%	68.8%	37.7%	1590%	2260%	103%	242%
O=C(O)[C@@H]1[O][Sb](=[O])([O][Sb]2(=[O])[O][C@H]([C@H](O)CO)[C@H](O)[C@H](C(=O)O)[O]2)[O][C@H]([C@H](O)CO)[C@@H]1O (stereo partly specified) [stibogluconate] + Nc1cccc2c1CN(C1CCC(=O)NC1=O)C2=O [lenalidomide] (first compound 2 µM, partner dose 1 µM)	197%	81.3%	106%	31%	49.1%	109%	59.5%	66.7%	119%	65%	203%	64%	95.8%	17.5%
CN1CCN(c2ccc3nc(-c4c(N)c5c(F)cccc5[nH]c4=O)[nH]c3c2)CC1 [Dovitinib] + COCC[n+]1c2c(n(Cc3cnccn3)c1C)C(=O)c1ccccc1C2=O [YM155] (first compound 0.1 µM, partner dose 0.0004 µM)	27.8%	137%	135%	71.8%	95%	109%	460%	192%	157%	227%	107%	35.9%	106%	57.2%
Nc1nc(F)nc2c1ncn2[C@@H]1O[C@H](CO)[C@@H](O)[C@@H]1O [fludarabine] + CC(=O)c1c(C)c2cnc(Nc3ccc(N4CCNCC4)cn3)nc2n(C2CCCC2)c1=O [palbociclib] (first compound 0.2 µM, partner dose 0.04 µM)	126%	495%	170%	55.2%	116%	889%	692%	52.4%	244%	66.8%	126%	813%	144%	255%
CC(C)C[C@H](NC(=O)[C@H](Cc1ccccc1)NC(=O)c1cnccn1)B(O)O [Bortezomib] + CNC(=O)c1cc(Oc2ccc(NC(=O)Nc3ccc(Cl)c(C(F)(F)F)c3)cc2)ccn1 [sorafenib] (first compound 0.001 µM, partner dose 0.4 µM)	101%	144%	331%	211%	57%	49.1%	94.9%	165%	113%	662%	208%	104%	503%	53.5%
Cn1c(=O)n(-c2ccc(C(C)(C)C#N)cc2)c2c3cc(-c4cnc5ccccc5c4)ccc3ncc21 + CS(=O)(=O)CCNCc1ccc(-c2ccc3ncnc(Nc4ccc(OCc5cccc(F)c5)c(Cl)c4)c3c2)o1 [lapatinib] (first compound 0.004 µM, partner dose 0.8 µM)	138%	85.3%	68.9%	89.1%	150%	71.4%	41.3%	194%	133%	69.6%	97.3%	120%	82.9%	87.7%
C[C@@H](Oc1cc(-c2cnn(C3CCNCC3)c2)cnc1N)c1c(Cl)ccc(F)c1Cl [Crizotinib] + CC(=O)c1c(C)c2cnc(Nc3ccc(N4CCNCC4)cn3)nc2n(C2CCCC2)c1=O [palbociclib] (first compound 0.2 µM, partner dose 0.04 µM)	144%	436%	118%	298%	50.6%	97.6%	205%	83.8%	123%	220%	47.3%	155%	111%	115%
Nc1ccn([C@@H]2O[C@H](CO)[C@@H](O)C2(F)F)c(=O)n1 [gemcitabine] + COc1ccc(Cl)c(Nc2nc3ccccc3nc2NS(=O)(=O)c2cccc(NC(=O)C(C)(C)N)c2)c1 [XL147] (first compound 0.0004 µM, partner dose 0.8 µM)	73.9%	103%	87.9%	155%	66.3%	84.2%	196%	28.4%	153%	59.1%	136%	42.6%	115%	76.3%
O=C(O)c1ccc2c(c1)nc(Nc1cccc(Cl)c1)c1ccncc12 + C=C(c1ccc(C(=O)O)cc1)c1cc2c(cc1C)C(C)(C)CCC2(C)C [Bexarotene] (first compound 0.4 µM, partner dose 2 µM)	130%	39.5%	77%	72.3%	76.7%	127%	84.4%	71.4%	79.5%	104%	99.8%	54.2%	96.4%	62.9%

Looked up above.
C[C@@H](Oc1cc(-c2cnn(C3CCNCC3)c2)cnc1N)c1c(Cl)ccc(F)c1Cl [Crizotinib] + CC(=O)c1c(C)c2cnc(Nc3ccc(N4CCNCC4)cn3)nc2n(C2CCCC2)c1=O [palbociclib] (first compound 0.2 µM, partner dose 0.04 µM) – cleaved PARP positive nuclei fraction (RPMI7951): 118%
CN1CCN(c2ccc3nc(-c4c(N)c5c(F)cccc5[nH]c4=O)[nH]c3c2)CC1 [Dovitinib] + COCC[n+]1c2c(n(Cc3cnccn3)c1C)C(=O)c1ccccc1C2=O [YM155] (first compound 0.1 µM, partner dose 0.0004 µM) – cleaved PARP positive nuclei fraction (MZ2-MEL): 27.8%
